The campaign covered roughly 52,000 sequences. About 210 (0.4%) were called active.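 How the source made its calls: active means gene whose silencing raises cell survival under the drug, median off-target-corrected z-score across its silencing RNAs 2 or more; inactive means the rest.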 This is one part of the list.

This assay is described as follows: Resistance to Poly (ADP-Ribose) Polymerase inhibitor: Gene Identification via Genome-wide siRNA Screen. The following applies: mouse BRCA2 R2336H ES cells, olaparib, CellTiter-Glo viability; stronger effect = higher value. Summed up:
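Mouse BRCA2 R2336H ES cells were reverse-transfected with siRNA (20 nM final), treated at 48 h with 500 nM olaparib, and read by CellTiter-Glo after 72 h. Scores: MAD-based z per siRNA, median per gene, seed off-target correction.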
(In general: In ATP-based viability assays light output follows the ATP content of the culture.)
As to GGAGACACUUUCCGGAUUATT against Cbl, the z-score is inactive: -0.838.

In the case of “CCUUUAGUGAGAUUAAGCATT against 1700064K09Rik”, the z-score was inactive: -0.185.

As to GCCCAUGUUAGAGGUUUUGTT against Rshl2, the z-score is inactive: 1.07.

With GGUUCUACAUGUGAAACAATT against Zfp143, the z-score is inactive: -2.03.

Take GGGCUCAGUAGUAAAUAUGTT against Zswim1: the z-score is inactive: -0.52.

On to GGCUUAUAGGAGGCUCUCUTT against Prop1, for which the z-score was inactive: -0.27.

As to GGCAUUAUAAGUGACCUUATT against Smarcc1, the z-score was inactive: -2.13.

On to GGACACAGCAAGGAAGAAATT against Mad2l1bp, for which the z-score was inactive: 0.187.

GGAAGAUUGAAUUUGACUCTT against Rpn2: the z-score is inactive: -0.115.

GGAAAGAUGAGAUCCUAGGTT against BC032204: the z-score was inactive: 2.18.

For “GGGAGAUAACAUAAGUCAUTT against A130009K11Rik”, the z-score is inactive: 0.94.

Turning to GCCAAUUUGAAGGUUUUCATT against Tlr8, the z-score was inactive: -0.83.

As for GGUGGACAUUCCUAAGAUUTT against Eif2c1, the z-score is inactive: 0.739.

Take GGAGGUGAAGAUGGCCAUGTT against Olfr285: the z-score was inactive: -0.996.

With CGUUCACCGUCUCCAAGUATT against Cav3, the z-score was inactive: -3.21.

Take “GGCACUAAUUGAAGAAUUUTT against 4930544G11Rik”: the z-score was inactive: 1.06.

With “GGUAGUAGGAGGAAUGACGTT against 4633402D15Rik”, the z-score is inactive: -1.72.

On to GGGUAUUAUAAAAACCCAGTT against Ccrn4l, for which the z-score was inactive: 2.01.

Take GGAGACAAACAAAAUCAUCTT against Sbsn: the z-score is inactive: 1.28.

As for GGAAUGAGUUAGAAUAGCGTT against BC004004, the z-score is inactive: 1.24.

Take CCCAAAUACUCCAAUUAUATT against Fzd3: the z-score was inactive: 0.889.

With GCUCACCCAACAAUAUCCATT against Slc17a8, the z-score is inactive: 0.0101.

For GGACCUCGAUCUCUCUUAUTT against Lrfn3, the z-score is inactive: -0.788.

On to GGUCAGCUUCAGAGAAAACTT against Aire, for which the z-score is inactive: 0.0039.

Turning to GGCUCUGUUUAUCCUGGAGTT against Pcdha7, the z-score was inactive: 0.702.

With GGUCAUGGAAGAUUCCAAGTT against Atp6v1c2, the z-score was inactive: -0.23.

Take “CCAGGAUUACAUCCGGACATT against D530025C17Rik”: the z-score was inactive: 0.0395.

Consider GGGCCAAAACAAUUAAGAATT against Kif5b, for which the z-score was inactive: 0.0478.

For the sequence “GGUACAAUCGAAAGUACUUTT against 2210013K02Rik”, the z-score was inactive: -0.00963.

For the sequence GGUUUAUAGCUUUUUGGUCTT against Tiam1, the z-score is inactive: 1.24.

In the case of GUGCAGAAGCUGAUGCACCTT against Pou3f1, the z-score was inactive: 0.539.

For the sequence “GGAUCAGAAGUUGAUAGAUTT against 4930429O20Rik”, the z-score is inactive: -1.53.

As to “GGCUUAAAGAAGAAAAAGATT against 2600001J17Rik”, the z-score was inactive: -2.02.

As for GGUAAUGCUGUGGAGUCUUTT against Wdr53, the z-score is inactive: -0.882.

Consider CCACGCUAACUGGAAAGAATT against Dusp19, for which the z-score was inactive: -0.0447.

GGAACUCAAAUUGAAAAGGTT against Manea: the z-score is inactive: 0.449.

For the sequence GGAGAAGGCAAAGAAAGGATT against Foxa3, the z-score was inactive: 1.38.

Take GGAUGAGCUUUAAAAUAGATT against Mc1r: the z-score is inactive: 0.807.

For the sequence GGACCAUGUGGACUUUAGCTT against Sema7a, the z-score is inactive: -1.18.

For the sequence CCGUCAUCUGCUCUGAUUUTT against Cd5, the z-score is inactive: -0.0161.

In the case of CCUUCAAGAUAAAUUGACATT against AW413431, the z-score is inactive: -1.

As for GGAUAACCCUCAGAAGUCCTT against Was, the z-score is inactive: 0.0235.

With “GCAAGUGGAGUUUAUUGAUTT against D2Bwg0891e”, the z-score is inactive: 0.193.

In the case of GCACAUCGAAAAUGCCCUGTT against Cpt1c, the z-score is inactive: -1.04.

Consider CGAACUGGGCAGUAUAAACTT against Fgf2, for which the z-score was inactive: 0.084.

For GCGGGACUACACUCUUAAGTT against Car15, the z-score was inactive: -1.69.

Regarding GGCAGUGGACCACAUCAACTT against Eno2, the z-score was inactive: 0.353.

Take GGAUGUCAGGCUUUGUACATT against Alg6: the z-score is inactive: 0.36.

As to GGUCGUGUAUGUCACUGCATT against Gabt4, the z-score was inactive: -0.176.

Consider GGACUUGAAAUUAGCAAAATT against Arhgef3, for which the z-score was inactive: 0.95.

Consider CGAGUUUAAAGACCUGGAGTT against Gjb6, for which the z-score is inactive: 0.141.

Regarding CCCUUGACACUUAAUAAAGTT against Zfpm1, the z-score is inactive: 1.29.

In the case of GGGUUGAUCCCUUUGAUUCTT against AI132321, the z-score was inactive: 0.882.

Consider GGUCCUCAUGGGCAACAUUTT against Olfr624, for which the z-score is inactive: -0.904.

Regarding “GGGACAUUGCUCAAGAUUATT against C730048E16Rik”, the z-score was inactive: 1.48.

With CCAUGAAGUAUGGAACAACTT against Mccc1, the z-score was inactive: 0.255.

As to GCCAUUGGGUGUAACAUUUTT against Mpp6, the z-score is inactive: 0.218.

For “GGUAGAGCUAAGUAAAGAGTT against 2310058A11Rik”, the z-score is inactive: -1.2.

For GGGAAAAUAACGGUGAAUATT against Hspb8, the z-score is inactive: 0.222.

CCUGUAAGAACCUUGCCUATT against Sytl3: the z-score was inactive: 0.413.

On to GGAGCUAGUAUGUUCAACATT against Ubqln1, for which the z-score was inactive: -1.05.

In the case of GGCGGCCUAUAUGAGGUUCTT against Cftr, the z-score was inactive: -0.126.

On to GGAGGCAUGAUAAGCUUCGTT against Pmm1, for which the z-score was inactive: -0.45.

Consider GCGGCUACGUUUAUGAAGATT against Hlcs, for which the z-score was inactive: -0.316.

With GCUCAACCUGAAAACGUAUTT against Ptcd1, the z-score was inactive: 0.823.

Consider “GCGGAGAAUAUCUUGCUUATT against 2310007B03Rik”, for which the z-score was inactive: 1.36.

On to GCAAAGAAGUGUAUGUGUUTT against Olfr273, for which the z-score was inactive: 0.291.

For the sequence “GUCUGUGACCAGUUCCAUUTT against A930011G24”, the z-score is inactive: 0.741.

For the sequence “GCACAGAAGUUAUUUAGCUTT against 5832424M12”, the z-score was inactive: 0.364.

For GCUUUGAAGUUCCUCAUGCTT against BC052328, the z-score is inactive: -1.35.

Regarding “GGGAGAAAUUUGAUAGUUUTT against 5330414D10Rik”, the z-score is inactive: -0.947.

Turning to GGAAAUAUAGUAAAGCAGATT against BC006933, the z-score was inactive: -0.0719.

As for “GGAAUCUAGACCUAACUUCTT against 6230401O10Rik”, the z-score was inactive: 1.03.

With GGACGAGUUCAAGAGUCUCTT against Elavl3, the z-score was inactive: 0.0357.

On to GGAGGAAAAGAGACAGCUCTT against Ankrd25, for which the z-score is inactive: -0.0791.

For CGAUGGCCCAUAAAUACUUTT against Gemin4, the z-score is inactive: -0.904.

On to “GGUGUGAUGCUUGAGUGUCTT against A430090E18Rik”, for which the z-score is inactive: -1.07.

For GGAGGGAAAACCACAAGACTT against Dppa4, the z-score was inactive: 1.

“GGAGCUGGUGUUGAGUGAGTT against 4933406A14Rik”: the z-score is inactive: -0.0278.

GGAAACAUCGAAUCUGAUUTT against Slc11a2: the z-score is inactive: 0.485.

On to GGACCUUGGGUCUACAGAATT against Hoxd1, for which the z-score is inactive: 0.271.

Take CCACAAGUCAUCUUAGUGATT against Zfp236: the z-score was inactive: -1.36.

As to GGCCAGAUGACCUUGUCAUTT against Sult1e1, the z-score was inactive: -0.228.

GCUAGAUGCCGAAAAUCAATT against Obscn: the z-score is inactive: -0.13.

Regarding CGAAACCAUACCAGUUACUTT against Pthr1, the z-score is inactive: 0.773.

As to GGGCAGGACUGAAUCAAGUTT against Dkk2, the z-score is inactive: 0.806.

On to GCAUAAAGUUUACGUCCAATT against Irx4, for which the z-score is inactive: 0.875.

In the case of GGACUGGCAAUUUUAUAGATT against Pygb, the z-score is inactive: 0.577.

As to GGAGGUAUUCUAAAAUCACTT against Helb, the z-score was inactive: 1.41.

As to GGAAAUCUGUUCUUGAAGGTT against Pcdhb4, the z-score is inactive: 1.16.

For the sequence CCCAGUUAGAAUUGUUAUCTT against Snx16, the z-score is inactive: 0.945.

GGUGCUAGAAACAUCCUACTT against Fbf1: the z-score is inactive: 2.29.

As for “GGUAUUGCUUUCACAUUAUTT against C920006C10Rik”, the z-score was inactive: -0.814.

Consider CCGUCUGGGCAUGAUGAUATT against Dpep3, for which the z-score was inactive: -1.58.

In the case of GUGGGAAACAUUUAAUGCCTT against V1rg9, the z-score is inactive: 0.297.

Regarding GACUUCGGGCAGCAGCAUATT against Atp5e, the z-score was inactive: -2.48.

On to GGCUGAAGCGCAAGAGGAATT against Bing4, for which the z-score was inactive: -0.816.

Regarding GGUAGACUUAUGUAGAUUCTT against Mrs2l, the z-score was inactive: 2.08.

As for “GGAUGUUUCUAACUCCUUUTT against C330016O10Rik”, the z-score is inactive: -0.515.

Turning to GGAAGAAGAAUACAAAGAUTT against Zfp40, the z-score is inactive: -0.525.

As to GGAAAAGUGGUGAACGACATT against Tm4sf4, the z-score was inactive: -0.78.

In the case of GGACAUGACAUCCAAAGACTT against Hrmt1l2, the z-score is inactive: -0.11.

On to “GCAACUCAUGGUCAAUAUGTT against E130120L08Rik”, for which the z-score is inactive: 2.15.

GGAACUGUGUGACUACUUUTT against Efcbp2: the z-score was inactive: -0.302.
